According to the supplement of paper PMC8497498:
± gives the standard deviation of the averaged measurements. Some of the results follow. The data scatter; read single values as rough.

Tests used:
Conditions in all cases: 10 µM
[1] = tested on: Plasmodium vivax liver stage (primary human hepatocyte culture); test: hypnozoite quantity inhibition (% inhibition); higher = more active against hypnozoites
[2] = tested on: Plasmodium vivax liver stage (primary human hepatocyte culture); test: schizont net growth area inhibition (% inhibition); higher = more active against liver schizonts
[3] = tested on: primary human hepatocytes; test: hepatic nuclei reduction relative to DMSO (100 - % of negative control); higher = more toxic to hepatocytes
[4] = assay mode: Prophylactic (treated before or shortly after infection), fixed day 6 post-infection
[5] = assay mode: Radical Cure (treated from day 5 post-infection for 3 days), fixed day 8 post-infection

`CCOC(=O)c1cnc2c(CC)cccc2c1O` was tested, and the hypnozoite quantity inhibition [1, 4] was 0, the hypnozoite quantity inhibition [1, 5] was 4.7 and the “schizont net growth area inhibition” value [2, 4] was 34.8. The “schizont net growth area inhibition” value [2, 5] was -106, the hepatic nuclei reduction [3, 4] was -4% and the hepatic nuclei reduction [3, 5] was -3%.

For `Cc1ccc2cc(C3NC(=O)c4ccccc4N3)c(Cl)nc2c1` (centres undefined), the hypnozoite quantity inhibition [1, 4] was 20, the hypnozoite quantity inhibition [1, 5] was -20 and the “schizont net growth area inhibition” value [2, 4] was 20.7. The “schizont net growth area inhibition” value [2, 5] was -44.9, the hepatic nuclei reduction [3, 4] was 4% and the hepatic nuclei reduction [3, 5] was 8%.

`CCOc1cccc(C(=O)Nc2ccc(-c3nc4ccccc4[nH]3)cc2)c1` was tested, and the hypnozoite quantity inhibition [1, 4] was 4.6, the hypnozoite quantity inhibition [1, 5] was 22.1 and the “schizont net growth area inhibition” value [2, 4] was 39.8. For the same compound, the “schizont net growth area inhibition” value [2, 5] was 21.9, the hepatic nuclei reduction [3, 4] was 6% and the hepatic nuclei reduction [3, 5] was -2%.

With `COc1ccc(C=C2SC(Nc3ccc(F)cc3)=NC2=O)c(OC)c1` the hypnozoite quantity inhibition [1, 4] was -2.8, the “schizont net growth area inhibition” value [2, 4] was -31.3 and the “schizont net growth area inhibition” value [2, 5] was -12. It also gave a hepatic nuclei reduction [3, 4] of -11% and a hepatic nuclei reduction [3, 5] of -12%.

`COc1ccc(CN2CCOc3ccc(C(C)(O)CN(C)C)cc3C2)cc1C` (centres undefined) was tested, and the hypnozoite quantity inhibition [1, 4] was -31, the hypnozoite quantity inhibition [1, 5] was -2 and the “schizont net growth area inhibition” value [2, 4] was 33. The “schizont net growth area inhibition” value [2, 5] was -50.3, the hepatic nuclei reduction [3, 4] was 4% and the hepatic nuclei reduction [3, 5] was 0%.

`COc1ccccc1CNC(=O)C1c2ccccc2C(=O)N(CC(C)C)C1c1cccs1` (centres undefined) was tested, and the hypnozoite quantity inhibition [1, 4] was -16.4, the hypnozoite quantity inhibition [1, 5] was -17.1 and the “schizont net growth area inhibition” value [2, 4] was 4.7. For the same compound, the “schizont net growth area inhibition” value [2, 5] was -36.2, the hepatic nuclei reduction [3, 4] was 12% and the hepatic nuclei reduction [3, 5] was -1%.

`CCOc1ccc(Nc2ccnc3cc(Cl)ccc23)cc1` was tested, and the hypnozoite quantity inhibition [1, 4] was -51.1, the hypnozoite quantity inhibition [1, 5] was 54.2 and the “schizont net growth area inhibition” value [2, 4] was -4.6. The “schizont net growth area inhibition” value [2, 5] was 17.7, the hepatic nuclei reduction [3, 4] was -16% and the hepatic nuclei reduction [3, 5] was -7%.

With `c1coc(CNc2nc(N3CCCCC3)nc3ccccc23)c1` the hypnozoite quantity inhibition [1, 4] was -96, the hypnozoite quantity inhibition [1, 5] was 32 and the “schizont net growth area inhibition” value [2, 4] was 29.7. For the same compound, the “schizont net growth area inhibition” value [2, 5] was -121, the hepatic nuclei reduction [3, 4] was -1% and the hepatic nuclei reduction [3, 5] was 10%.

`C[C@H]1COc2c(N3CCN(C)CC3)c(F)cc3c(=O)c(C(=O)O)cn1c23` was tested, and the hypnozoite quantity inhibition [1, 4] was 23, the hypnozoite quantity inhibition [1, 5] was -39 and the “schizont net growth area inhibition” value [2, 4] was -46.5. For the same compound, the “schizont net growth area inhibition” value [2, 5] was -40.4, the hepatic nuclei reduction [3, 4] was -8% and the hepatic nuclei reduction [3, 5] was -4%.

For `CSC1=NC(=Nc2c(C)cccc2C)C2(CCC(C(C)(C)C)CC2)N1c1ccc(Cl)cc1` (centres undefined), the hypnozoite quantity inhibition [1, 4] was -26.6, the hypnozoite quantity inhibition [1, 5] was 42.7 and the “schizont net growth area inhibition” value [2, 4] was 76.6. For the same compound, the “schizont net growth area inhibition” value [2, 5] was -10.4, the hepatic nuclei reduction [3, 4] was -10% and the hepatic nuclei reduction [3, 5] was -6%.

In the case of `COCCNCC(O)Cn1c2ccc(Cl)cc2c2cc(Cl)ccc21` (centres undefined), the hypnozoite quantity inhibition [1, 4] is reported as -8, the hypnozoite quantity inhibition [1, 5] is reported as 31.3 and the “schizont net growth area inhibition” value [2, 4] is reported as -35.8. For the same compound, the “schizont net growth area inhibition” value [2, 5] was 37.8, the hepatic nuclei reduction [3, 4] was -9% and the hepatic nuclei reduction [3, 5] was 11%.

For `O=c1c2c([nH]c3ccccc13)CCCC2`, the hypnozoite quantity inhibition [1, 4] was -11.4, the hypnozoite quantity inhibition [1, 5] was -3.5 and the “schizont net growth area inhibition” value [2, 4] was 71. For the same compound, the “schizont net growth area inhibition” value [2, 5] was -64.2, the hepatic nuclei reduction [3, 4] was -2% and the hepatic nuclei reduction [3, 5] was -13%.

With `Nc1ccc(C(=O)Nc2ccc(-c3nc4ccccc4o3)cc2)cc1` the hypnozoite quantity inhibition [1, 4] was -15, the hypnozoite quantity inhibition [1, 5] was 4 and the “schizont net growth area inhibition” value [2, 4] was 9.6. For the same compound, the “schizont net growth area inhibition” value [2, 5] was -4.9, the hepatic nuclei reduction [3, 4] was -11% and the hepatic nuclei reduction [3, 5] was -2%.

With `CCOc1ccc(-c2nc(CNCCc3ccc(F)cc3)cs2)cc1` the hypnozoite quantity inhibition [1, 4] was -22, the hypnozoite quantity inhibition [1, 5] was -22 and the “schizont net growth area inhibition” value [2, 4] was 1.2. For the same compound, the “schizont net growth area inhibition” value [2, 5] was 22.9, the hepatic nuclei reduction [3, 4] was -18% and the hepatic nuclei reduction [3, 5] was -3%.

With `COc1cccc(-n2nnnc2S(=O)(=O)Cc2ccccc2)c1` the hypnozoite quantity inhibition [1, 4] was 28, the hypnozoite quantity inhibition [1, 5] was -25 and the “schizont net growth area inhibition” value [2, 4] was 42.3. The “schizont net growth area inhibition” value [2, 5] was -49.1, the hepatic nuclei reduction [3, 4] was -5% and the hepatic nuclei reduction [3, 5] was -6%.

For `O=C(Nc1ccc(N2CCNCC2)cc1)c1ccn2ncc(-c3cccc(Cl)c3)c2n1`, the hypnozoite quantity inhibition [1, 4] was -76, the hypnozoite quantity inhibition [1, 5] was -65 and the “schizont net growth area inhibition” value [2, 4] was 109. For the same compound, the “schizont net growth area inhibition” value [2, 5] was 84.3, the hepatic nuclei reduction [3, 4] was 3% and the hepatic nuclei reduction [3, 5] was 12%.

With `COc1ccc(-c2cncc3ccc(C(=O)NCCCn4ccnc4)nc23)cc1` the hypnozoite quantity inhibition [1, 4] was 52, the hypnozoite quantity inhibition [1, 5] was -44 and the “schizont net growth area inhibition” value [2, 4] was 94.6. The “schizont net growth area inhibition” value [2, 5] was 107, the hepatic nuclei reduction [3, 4] was -1% and the hepatic nuclei reduction [3, 5] was -10%.

In the case of `COc1cc(C(=O)Nc2nc3c(cc4c5c(cccc53)CC4)s2)cc(OC)c1OC`, the hypnozoite quantity inhibition [1, 4] is reported as -45.9, the hypnozoite quantity inhibition [1, 5] is reported as 35.9 and the “schizont net growth area inhibition” value [2, 4] is reported as 25.9. For the same compound, the “schizont net growth area inhibition” value [2, 5] was 66.7, the hepatic nuclei reduction [3, 4] was 3% and the hepatic nuclei reduction [3, 5] was -1%.

`COc1cc(NC(C)CCCN)c2ncccc2c1` (centres undefined) was tested, and the hypnozoite quantity inhibition [1, 4] was 18 ± 1.4, the hypnozoite quantity inhibition [1, 5] was -9 ± 34 and the “schizont net growth area inhibition” value [2, 4] was 41.4 ± 15. For the same compound, the “schizont net growth area inhibition” value [2, 5] was -9.9 ± 5, the hepatic nuclei reduction [3, 4] was 7 ± 4.2% and the hepatic nuclei reduction [3, 5] was 4.5 ± 6.4%.

With `O=C(NCc1ccoc1)N1CCN(Cc2ccc3c(c2)OCO3)CC1` the hypnozoite quantity inhibition [1, 4] was -78, the hypnozoite quantity inhibition [1, 5] was -62 and the “schizont net growth area inhibition” value [2, 4] was 7.9. For the same compound, the “schizont net growth area inhibition” value [2, 5] was -130, the hepatic nuclei reduction [3, 4] was 0% and the hepatic nuclei reduction [3, 5] was 2%.

`O=C(NCC1Cc2cccc(-c3ccncc3)c2O1)c1csc2c1CCCC2` (centres undefined) was tested, and the hypnozoite quantity inhibition [1, 4] was -10.7, the hypnozoite quantity inhibition [1, 5] was -0.8 and the “schizont net growth area inhibition” value [2, 4] was 15.1. For the same compound, the “schizont net growth area inhibition” value [2, 5] was -14.8, the hepatic nuclei reduction [3, 4] was -3% and the hepatic nuclei reduction [3, 5] was -7%.

With `CCOC(=O)c1cnc2ccc(Cl)cc2c1NCCCN(C)C` the hypnozoite quantity inhibition [1, 4] was 6.1, the hypnozoite quantity inhibition [1, 5] was 38.2 and the “schizont net growth area inhibition” value [2, 4] was -31. For the same compound, the “schizont net growth area inhibition” value [2, 5] was 41.5, the hepatic nuclei reduction [3, 4] was -1% and the hepatic nuclei reduction [3, 5] was 8%.

In the case of `CC[P](CC)(CC)=[Au][S][C@H]1O[C@@H](COC(C)=O)[C@H](OC(C)=O)[C@@H](OC(C)=O)[C@@H]1OC(C)=O`, the hypnozoite quantity inhibition [1, 4] is reported as -7, the hypnozoite quantity inhibition [1, 5] is reported as -51 and the “schizont net growth area inhibition” value [2, 4] is reported as 7. The “schizont net growth area inhibition” value [2, 5] was 42.9, the hepatic nuclei reduction [3, 4] was 3% and the hepatic nuclei reduction [3, 5] was 4%.

With `COc1ccc2c(c1)OC(O)(C(F)(F)C(F)(F)F)CC2=O` (centres undefined) the hypnozoite quantity inhibition [1, 4] was 32.9, the hypnozoite quantity inhibition [1, 5] was -6.2 and the “schizont net growth area inhibition” value [2, 4] was 32.1. For the same compound, the “schizont net growth area inhibition” value [2, 5] was -67.4, the hepatic nuclei reduction [3, 4] was -5% and the hepatic nuclei reduction [3, 5] was -8%.

In the case of `COc1ccccc1N1C(=N)SC(=Cc2ccc(OCc3ccccc3F)cc2)C1=O`, the hypnozoite quantity inhibition [1, 4] is reported as -14.7, the hypnozoite quantity inhibition [1, 5] is reported as 31.3 and the “schizont net growth area inhibition” value [2, 4] is reported as -63.5. For the same compound, the “schizont net growth area inhibition” value [2, 5] was 54, the hepatic nuclei reduction [3, 4] was -9% and the hepatic nuclei reduction [3, 5] was -5%.

`OC(CNC1CCCCC1)Cn1c2ccccc2c2ccccc21` (centres undefined) was tested, and the hypnozoite quantity inhibition [1, 4] was 64.5, the hypnozoite quantity inhibition [1, 5] was 18.3 and the “schizont net growth area inhibition” value [2, 4] was 86.5. The “schizont net growth area inhibition” value [2, 5] was -29.3, the hepatic nuclei reduction [3, 4] was 7% and the hepatic nuclei reduction [3, 5] was -8%.

For `O=C(Cn1ccnc1[N+](=O)[O-])NCc1ccccc1`, the hypnozoite quantity inhibition [1, 4] was 28, the hypnozoite quantity inhibition [1, 5] was 22 and the “schizont net growth area inhibition” value [2, 4] was 11.8. For the same compound, the “schizont net growth area inhibition” value [2, 5] was -15.1, the hepatic nuclei reduction [3, 4] was 2% and the hepatic nuclei reduction [3, 5] was -5%.

In the case of `CC1=Nc2ccc(Cl)cc2C(c2ccccc2)N1CCNC(=O)CN(C)C` (centres undefined), the hypnozoite quantity inhibition [1, 4] is reported as 1, the hypnozoite quantity inhibition [1, 5] is reported as -44 and the “schizont net growth area inhibition” value [2, 4] is reported as 28.2. The “schizont net growth area inhibition” value [2, 5] was 48.6, the hepatic nuclei reduction [3, 4] was 1% and the hepatic nuclei reduction [3, 5] was -3%.

`COc1ccc2nc(C)cc(Nc3ccc(Cl)cc3)c2c1` was tested, and the hypnozoite quantity inhibition [1, 4] was 36, the hypnozoite quantity inhibition [1, 5] was 64.6 and the “schizont net growth area inhibition” value [2, 4] was 48.9. For the same compound, the “schizont net growth area inhibition” value [2, 5] was -6.5, the hepatic nuclei reduction [3, 4] was -5% and the hepatic nuclei reduction [3, 5] was 6%.

For `Nc1nc2ccc(-c3cncc(Oc4ccc(F)cc4)c3)cc2[nH]1`, the hypnozoite quantity inhibition [1, 4] was 4, the hypnozoite quantity inhibition [1, 5] was -23 and the “schizont net growth area inhibition” value [2, 4] was 6.9. For the same compound, the “schizont net growth area inhibition” value [2, 5] was -168, the hepatic nuclei reduction [3, 4] was -8% and the hepatic nuclei reduction [3, 5] was -9%.
